## Primary screen of a compound library

Source: ChEMBL document CHEMBL3988442, “University of Dundee, Small-Polar-MMV Screening Library” (2021).

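Whole-parasite assay of Trypanosoma brucei over 72 hours; the read-out is not stated. Concentration: 30 µM. Higher reads as stronger inhibition (inferred: compounds with an IC50 in retests scored well above the rest). Values scatter widely below zero; nearly all retest evidence comes from the higher of the two concentrations used. About 64,000 compounds were tested under these conditions; 1.5% (about 940) showed 50% or more at least once.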

Each number is a percent effect as filed. The controls that fix the scale are not given in the record; negative values are as filed. This is an unselected part of the compounds tested.

- CCSc1ccc(C(=O)N2CC[C@](O)(CC)[C@H](O)C2)s1 : -1.451%
- O=C(c1ncoc1C1CC1)N1CCCN(CCCc2ccccc2)CC1 : 12.82%
- Cc1ccc(CN(C)C(=O)C(C)n2ccnc2C(C)C)o1 (centres undefined) : -18.08%
- O=C(O)C1(Oc2ccc(Cl)cc2)CCN(C2CCOCC2)CC1 : -27.89%
- CCC[C@H]1CN(c2nc(CO)cs2)C[C@@H]1NC(=O)C1CCC1 : -31.01%
- CC(C)c1ccc(CN2C(=O)C3(CCNCC3)Nc3ccccc32)cc1 : 101.9%
- [H][C@@]12COC[C@]1(c1nc(C)no1)CN(C(=O)C1CCOCC1)C2 : -3.756%
- Cc1cnc(CN(C)C2CCN(CC(=O)N(C)c3nccs3)C2)o1 (centres undefined) : -71.7%
- Cc1nc(C(C)(C)C)sc1C(=O)NCCNc1ncccn1 : 14.44%
- c1coc(-c2noc(CN3CCc4c(ncn4C4CC4)C3)n2)c1 : -47.17%
- CC(C)c1ncc(-c2cc(C3CCC3)nc(N)c2C#N)cn1 : 17.32%
- CCOc1ccc(Cl)cc1CCNC(=O)Cn1ccccc1=O : -52.74%
- CCS(=O)(=O)N1CCN(C(C)c2ccccc2OC)CC1 (centres undefined) : 0.2267%
- COCc1nn(C(C)C)c2c1CCN(Cc1nccs1)C2.O=C(O)C(F)(F)F : -35.6%
- CN1CCN(Cc2ccco2)Cc2cccnc21 : -39.76%
- NC(=O)C(CNC(=O)Cc1ccsc1)Cc1ccc(F)cc1 (centres undefined) : -11.5%
- Cc1cc(C(=O)N2CCc3nc(N4CCCC4)nc(C)c3CC2)c(C)o1 : 3.503%
- COCC1CCN(CCCc2cccc(OC)c2)CC1 : -17.5%
- c1ccc2oc(CCCN3CCc4cncnc4C3)nc2c1 : 12.57%
- Cc1cccnc1NC(=O)C1(n2cnnn2)CCCCC1 : -27.92%
- O=C(O)C(F)(F)F.[H][C@@]12CCCO[C@]1([H])[C@H](NC(=O)c1ccnnc1)CN(c1ncccn1)C2 : -16.98%
- CN(Cc1ccsc1)C(=O)Nc1ccc(S(C)(=O)=O)nc1 : 4.471%
- Cc1csc(CN2C[C@H](NC(=O)C3CCOCC3)[C@@H](C(C)C)C2)n1 : -11.44%
- CCc1ccc(C(NCC(N)=O)C(C)(C)C)o1 (centres undefined) : -18.14%
- O=C(c1ccc(-c2cnco2)cc1)N1CCC(Nc2cccnn2)CC1 : -11.97%
- Cc1ccccc1-c1ncc(CNCc2csc(C(C)C)n2)s1 : -5.749%
- [H][C@]12CN(S(C)(=O)=O)CCN1C[C@H](c1ccccc1)[C@H]2C(=O)OCC : -24.9%
- Cc1noc(C)c1Cn1cc(I)cc(C)c1=O : -19.11%
- COC(=O)[C@@H]1Cc2ncn(C)c2CN1S(=O)(=O)c1ccc(Cl)cc1 : -9.649%
- Cl.Cn1cc([C@@H]2CN(S(C)(=O)=O)C[C@H]2N)c2ccncc21 : -16.68%
- Cc1nccc(C2(C)CCCNC2)n1.Cl.Cl (centres undefined) : -19.06%
- O=C(O)C(F)(F)F.[H][C@@]12OCCN(C(C)=O)[C@@]1([H])CC[C@H]2OCCCn1cccn1 : -5.128%
- O=S(=O)(CC1CCCCO1)Nc1cnn(Cc2ccccc2)c1 (centres undefined) : 4.747%
- O=C(O)C(F)(F)F.[H][C@@]12COC[C@H](C(=O)N3CCC(F)CC3)[C@]1([H])CN(C1CCOCC1)C2 : -20.73%
- COc1c(C)cnc(CNCC(C)C)c1C : -18%
- CC(C)C[C@H](NC(=O)Cn1ccc2c(Cl)cccc21)C(=O)O : -31.2%
- Cc1cnc(C(C)(C)NC(=O)NCc2ccc(C#N)cc2F)s1 : 12.59%
- Cn1cc(C(C)(O)CNC(=O)c2cc(Br)cn2C)cn1 (centres undefined) : -15.02%
- O=C(NC[C@H]1OC[C@@H](NCc2ccccn2)[C@@H]1O)c1ccc(F)cc1 : -41.41%
- [H][C@@]12CCN(C(=O)Cc3cccc(O)c3)C[C@]1([H])[C@@H](c1ccccc1)CN2C : 1.323%
- Cc1ccc(C(=O)O)cc1NC(=O)C1CC=CC1 : -86.24%
- CC(C)n1[nH]c(=O)c2c1NC(=O)CC2c1ccc2ncccc2c1 (centres undefined) : -28.77%
- CCC(O)CNC(=O)c1coc(COc2ccc3sc(C)nc3c2)n1 (centres undefined) : -28.45%
- CN1CCC(Oc2ccc(NC(=O)c3ccccc3Br)cc2)CC1 : 65.56%
- CC(=O)N1CCCC(c2ccc(N3CCN(C)CC3)cn2)C1 (centres undefined) : -17.08%
- [H][C@@]12CC[C@@]([H])(C1)N(CCC(=O)N1CCN(c3cc(C)cc(C)c3)C(=O)C1)C2 : 1.504%
- CCCNC(=O)CCC(=O)Nc1ccc(-n2cncn2)c(F)c1 : -52.81%
- [H][C@@]12C[C@H](c3nnc(C)o3)O[C@@]1([H])CCN(Cc1cc(C)on1)C2 : -85.68%
- Cc1nn(C)c2nc(N3CCCC3c3nccs3)sc12 (centres undefined) : -9.158%
- [H][C@@]12CCN(C(=O)C3CCOCC3)C[C@@]1([H])O[C@H](c1ccncn1)C2 : 17.32%
- CC(C)n1cnnc1CN(C)C(=O)c1cnn2ccccc12 : 2.105%
- Cc1nc(C(C)(C)NCc2nnc(C(C)C)o2)sc1C : -55.66%
- CCC(O)CN1CCN(C(=O)c2cccc3c2OCC(=O)N3)CC1 (centres undefined) : -37.95%

For reference, 5 entries once more:

structure,Percent Effect
Cc1ccccc1-c1ncc(CNCc2csc(C(C)C)n2)s1,-5.749
[H][C@@]12CC[C@@]([H])(C1)N(CCC(=O)N1CCN(c3cc(C)cc(C)c3)C(=O)C1)C2,1.504
NC(=O)C(CNC(=O)Cc1ccsc1)Cc1ccc(F)cc1 (centres undefined),-11.5
CC(=O)N1CCCC(c2ccc(N3CCN(C)CC3)cn2)C1 (centres undefined),-17.08
CCC(O)CNC(=O)c1coc(COc2ccc3sc(C)nc3c2)n1 (centres undefined),-28.45